PubChem BioAssay AID1259405, NCATS – 2018
Aim: 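Mouse-designed siRNAs used to find CHO productivity engineering targets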 (primary screen). System: Chinese hamster CHO-K1 ovary cells with stable secreted eGFP expression. Knock-down reagent: single siRNA against mouse genes, 0.8 pmol siRNA per well (2 µl of 400 nM stock). Timing: 3 days. Detection: 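Per-well intracellular GFP measured by laser scanning cytometry, plus viability from ATP luminescence, each relative to plate median of non-targeting control wells, in %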. Direction: GFP, % of control: higher = more GFP per well, higher productivity. Call rule: 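a knock-down is called active if GFP reaches 120% or more of non-targeting control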.
The deposit covers about 50,000 reagents; this is an unselected part. Over the whole deposit, about 4,000 (8%) got an active call. 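Mouse siRNA library applied to hamster cells; one well for each siRNA.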 A number with no mark means an inactive call. Reagents against one gene are numbered here. Not all columns of the deposit are shown.

GFP, % of control, by gene and reagent
Eps8l3: #1 91.8; #2 125 (active); #3 102
Cxcl14: #1 63.6; #2 78.2; #3 87.1
Qki: #1 93.3; #2 69.4
Unc13b: #1 106; #2 81.2; #3 61.7
Sbds: #1 67.5; #2 105; #3 56.6
Inpp5d: #1 136 (active); #2 81.5; #3 98.5
App: #1 81.9; #2 115; #3 70.8
Exoc4: #1 100; #2 139 (active); #3 95.8
Zfp830: #1 66.2; #2 21.9; #3 93.9
Zfp280c: #1 57.1; #2 67.7; #3 62.1

Look-ups from the list.
Zfp830 #2, GFP, % of control: 21.9
Under “GFP, % of control”, Qki #1 shows 93.3
Entry for Unc13b #1 in “GFP, % of control”: 106
Result of App #2 in “GFP, % of control”: 115
Under “GFP, % of control”, Inpp5d #3 reads 98.5
For “GFP, % of control”, Cxcl14 #1 has 63.6

More reagents follow.
GFP, % of control, by gene and reagent
Dppa1: #1 52.3; #2 83.6; #3 60.8
Lurap1l: #1 47.8; #2 117; #3 83
Or4e2: #1 96.3; #2 69.2; #3 68.3
Rps11: #1 46.6; #2 107; #3 87.8
Tmco4: #1 73.8; #2 195 (active); #3 61.8
Avil: #1 69.5; #2 63.5
Kifc5b: #1 54.2; #2 61.1; #3 64.4
Flvcr2: #1 9.71; #2 53.8; #3 66.2
Serpina6: #1 138 (active); #2 99.1; #3 77.2
U2af2: #1 117; #2 65.7; #3 68
